{
  "source": "the supplement of paper PMC10338343",
  "note": "± gives the standard deviation. This is one part of the list. Many of these values have a large error.",
  "data": [
    {"tested_on": "EfPiwi piRISC loaded with L1MC piRNA (26 nt)", "experiment": "pre-steady-state target cleavage rate (min^-1); guide: L1MC piRNA 5'p-UAACUAAAUACUAUGCAAGCUGUAGG; MIWI and MILI are mouse PIWI proteins and EfPiwi is from a freshwater sponge; tags in brackets are library labels; higher = faster piRNA-guided slicing of the target", "details": "auxiliary factor: 500 nM Ephydatia muelleri Gtsf1", "outline": "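A transcribed, DNA-blocked target RNA library […] was incubated at 33 °C for 0–8 or 0–960 min with 1 nM active affinity-purified piRISC carrying one synthetic guide, in HEPES–potassium acetate buffer with or without 500 nM GTSF1 partner protein. Uncleaved targets were then sequenced and normalised to depth and to weakly complementary targets. Data from three trials were pooled, with k3 capped at 0.0001 min^-1, and a burst-and-steady-state fit yielded the pre-steady-state cleavage rate.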", "values": [
      {"sequence": "UCCUGGAUCAGCUAUGCAUAGUAUUUAGUUA", "pre-steady-state target cleavage rate": "0.106 ± 0.02"},
      {"sequence": "UCCUGGAUGUCGAAGCAUAGUAUUUAGGUUA", "pre-steady-state target cleavage rate": "0.000425 ± 0.0087"},
      {"sequence": "UCCUCGAUCAGCUUGCAUAGUAUUUAGUAA", "pre-steady-state target cleavage rate": "0.00989 ± 0.0033"},
      {"sequence": "UCCUGGAUGUCGAUGCAAAGUAUUUAGUUA", "pre-steady-state target cleavage rate": "0.00133 ± 0.0031"},
      {"sequence": "UCCUGGAUGUGCUUGCAUUGUAUUUAGAAA", "pre-steady-state target cleavage rate": "0.0016 ± 0.0025"},
      {"sequence": "UCCUCCUACAGCUUGCAUACUAUUUACUUA", "pre-steady-state target cleavage rate": "0.00621 ± 0.0047"},
      {"sequence": "UCCUGGAACAGCUUGGAUAGUAAUUAGUUA", "pre-steady-state target cleavage rate": "0.00719 ± 0.0026"},
      {"sequence": "UCCUCCAUGAGCUUGCAUAGUAUUUAGUAA", "pre-steady-state target cleavage rate": "0.00588 ± 0.0024"},
      {"sequence": "UCCUGGUACAGAUUGCAUAGUAUUUAGUUA", "pre-steady-state target cleavage rate": "0.0131 ± 0.0038"},
      {"sequence": "UCCUGGUACAGCUUGCAUAGUAUUUAGAUUA", "pre-steady-state target cleavage rate": "0.00491 ± 0.0025"},
      {"sequence": "UCCUGGAUGUCGAACCAUAGUAUUUAUUA", "pre-steady-state target cleavage rate": "0.000144 ± 0.016"},
      {"sequence": "UCCUGGAACAGGAUGCAUAGUAUUUAGAAA", "pre-steady-state target cleavage rate": "0.00257 ± 0.0016"},
      {"sequence": "UCCUGGAUGUCCUUGCUUAGUAAUUAGUUA", "pre-steady-state target cleavage rate": "0.000275 ± 0.016"},
      {"sequence": "UCCUGGAACAGCUUGCAUAGUAUCUAGUUA", "pre-steady-state target cleavage rate": "0.0068 ± 0.0027"},
      {"sequence": "UCCUGGAUGUCGAACCAUAUUAUUUAGUUA", "pre-steady-state target cleavage rate": "0.000466 ± 0.01"},
      {"sequence": "UCCUGGAUGUCGAUGCAAAGUAUUUUGUUA", "pre-steady-state target cleavage rate": "< 0.0001"},
      {"sequence": "UCCUGGAUGUCGAAGCAUAGUAAAAUCAAA [g9:g16:cont:t1A]", "pre-steady-state target cleavage rate": "0.000592 ± 0.0099"},
      {"sequence": "UCCUGGAUGUCGUUGCAUAGUAUUUAGUAUA", "pre-steady-state target cleavage rate": "0.000521 ± 0.0088"},
      {"sequence": "UCCUGGAUGUGCUUCCUUAGUAUUUAGUUA", "pre-steady-state target cleavage rate": "0.00175 ± 0.0044"},
      {"sequence": "UCCUGGUACAGCUUGCAUAGGUAUUUAGUUA", "pre-steady-state target cleavage rate": "0.0023 ± 0.0042"},
      {"sequence": "UCCUGGAUCAGCUUGCAUUGUUUUUAGUUA", "pre-steady-state target cleavage rate": "0.000797 ± 0.005"},
      {"sequence": "UCCUGGAUGUCCUUGCAUACAUAAAUCAAA [g12:g19:cont:t1A]", "pre-steady-state target cleavage rate": "0.000112 ± 0.038"},
      {"sequence": "UCCUGGAUGUGGAUGCAUAGUAUUUAGUUA", "pre-steady-state target cleavage rate": "0.00943 ± 0.0037"}
    ]}
  ]
}
